Some of the results follow. Measured potencies and affinities stand elsewhere.
What follows are compounds tested on Acinetobacter baumannii. Conditions: Concentration 20 uM; ASSAY_TEST Inhibition of Bacterial Growth; detection method Absorption (OD600); MEDIA CAMHB; plate type 384well; NBS; CORNING #3640; time 18 hr.

First: CC(C)=CCC/C(C)=C\CNCCNC1C2CC3CC(C2)CC1C3 (stereo not given)
Second: CC[C@H](CO)NCCN[C@H](CC)CO.Cl.Cl
The Inhibition of the first is higher: 42.43% for the first, 10.29% for the second.

First: Cc1cc(O)nc(-n2nc(C)cc2C)n1
Second: Cc1cc(NCC(C)C)c2[nH]nc(-c3ccccc3)c2n1
The Inhibition of the first is lower: 8.06% for the first, 19.99% for the second.

First: Cc1nc(-c2cccc(NCc3ccccc3)c2)[nH]c1C
Second: Cc1ccccc1C(=O)N1N=C(Nc2ccccc2)SC1(C)C
The Inhibition of the first is higher: 15.36% for the first, -6.25% for the second.

Compared with `COc1ccc(-c2onc(C(F)(F)F)c2-c2ccc(Cl)cc2)c(O)c1`, `COc1ccc(-c2nc(-c3cccc(NC(=O)Cc4ccc(F)cc4)c3)no2)cc1OC` is higher in Inhibition: 6.3% for the first, 17.02% for the second.

First: NCCC(O)C(=O)N[C@@H]1C[C@H](N)[C@@H](OC2O[C@H](CN)[C@@H](O)[C@H](O)[C@H]2O)[C@H](O)C1OC1O[C@H](CO)[C@@H](O)[C@H](N)[C@H]1O.O=S(=O)(O)O.O=S(=O)(O)O (stereo not given in full)
Second: CC1CCCCN1C(=O)NCCc1coc(-c2ccc(F)cc2)n1 (stereo not given)
The Inhibition of the first is lower: -1.98% for the first, 12.51% for the second.

First: CC(Oc1cccc(Cl)c1)C(=O)Nc1ccc2oc(-c3ccncc3)nc2c1 (stereo not given)
Second: COc1cccc(NC(=O)c2c(NC(=O)c3cccnc3)sc3c2CCC3)c1
The Inhibition of the first is lower: 6.23% for the first, 11.92% for the second.

Going from `CCOc1ccc(-c2nc(NC(=O)CS(=O)(=O)c3ccccc3)sc2C)cc1` to `Cc1nnc(NC(=O)c2cn(-c3ccccc3)nc2-c2ccccc2C)o1`, the Inhibition rises from 5.89% to 10.29%.

First: CNC(=O)C1Cc2c([nH]c3cc(Cl)ccc23)C2(CCN(CCc3ccccc3)CC2)N1 (stereo not given)
Second: Cc1ccc(S(=O)(=O)Nc2ccc(CN3CCN(C(=O)c4cccc(C#N)c4)CC3)cc2)cc1
The Inhibition of the first is lower: -7.17% for the first, 7.03% for the second.

Going from `CCCc1ccc(S(=O)(=O)Nc2ccc(CN3CCN(CC4CC4)CC3)cc2)cc1` to `O=C(C1CCN(c2nnnn2-c2ccccc2)CC1)N1CCc2ccccc2C1`, the Inhibition falls from 10.3% to 7.15%.

First: CC1COC2(CCN(c3nc(=O)c4cc(C(F)(F)F)cc([N+](=O)[O-])c4s3)CC2)O1 (stereo not given)
Second: O=[N+]([O-])c1cn2c(n1)OC[C@@H](OCc1ccc(OC(F)(F)F)cc1)C2 [PRETOMANID]
The Inhibition of the first is higher: 7.79% for the first, 6.12% for the second.

Compared with `CCC(=O)Nc1ccccc1C(=O)Nc1ccccn1`, `CC(C)NCC(=O)Nc1cccc(C(=O)Nc2cccc(C(F)(F)F)c2)c1` is higher in Inhibition: 10.62% for the first, 12.44% for the second.

First: COc1cc(C2=NCCN2)ccc1-c1cn(-c2cccc(C3=NCCN3)c2)nn1
Second: Cc1noc(C)c1C(=O)N1CCCC(c2[nH]c3c(C)cccc3c2-c2ccncc2)C1 (stereo not given)
The Inhibition of the first is higher: 13.79% for the first, 0.36% for the second.

For `CNc1snc(C)c1C(=O)NCCOc1ccc(OC)cc1`, the Inhibition was 13.43%.
